Some of the results follow.
Tests used:
Assay in all cases: log2 fold change, soluble protein after heating vs DMSO (PISA); higher = thermal stabilisation; K562 lysate, 10 uM; active = over 0.2 and 3.5 SD of the protein, either way, in both replicates (recomputed)
vemurafenib = compound: CCCS(=O)(=O)Nc1ccc(F)c(C(=O)c2c[nH]c3ncc(-c4ccc(Cl)cc4)cc23)c1F [vemurafenib]
Summary of the method: (§1)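 A 30 min treatment with 10 μM compound was applied to crude K562 extract at 1 mg/mL protein in PBS pH 7.4 with 1 mM MgCl2. Heating for 3 min spanned 48°C-58°C, after which aliquots were pooled, adjusted to 0.5% NP-40 at 4°C and spun at 21,000xg for 90 min. TMTpro 16plex LC-MS/MS of the supernatant, with channel sums equalised, gave values recorded as log-two fold change in thermal stability against solvent controls, from duplicates.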

Sequences of proteins named here, by UniProt entry; tags and fusion partners are left off. A change or cut given only in a name is not applied to a line headed by its entry.
UniProt Q86WA6: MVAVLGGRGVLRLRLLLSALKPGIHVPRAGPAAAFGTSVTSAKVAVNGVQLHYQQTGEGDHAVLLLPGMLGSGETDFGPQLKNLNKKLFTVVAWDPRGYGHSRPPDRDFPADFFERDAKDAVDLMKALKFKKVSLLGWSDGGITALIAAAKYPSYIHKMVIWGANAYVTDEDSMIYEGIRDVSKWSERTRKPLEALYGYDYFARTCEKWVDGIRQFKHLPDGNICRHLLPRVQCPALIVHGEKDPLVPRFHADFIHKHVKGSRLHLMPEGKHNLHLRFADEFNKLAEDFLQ
UniProt P21953: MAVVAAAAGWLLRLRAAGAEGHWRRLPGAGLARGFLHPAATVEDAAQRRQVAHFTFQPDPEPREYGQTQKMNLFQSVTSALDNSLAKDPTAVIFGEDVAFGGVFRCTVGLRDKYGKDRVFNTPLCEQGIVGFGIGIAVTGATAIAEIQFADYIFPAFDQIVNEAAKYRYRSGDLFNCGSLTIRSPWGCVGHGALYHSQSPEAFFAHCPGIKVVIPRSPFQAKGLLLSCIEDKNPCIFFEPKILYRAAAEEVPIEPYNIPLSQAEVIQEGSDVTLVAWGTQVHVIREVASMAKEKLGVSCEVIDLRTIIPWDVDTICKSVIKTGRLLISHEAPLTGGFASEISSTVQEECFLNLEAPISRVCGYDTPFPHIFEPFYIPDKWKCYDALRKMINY
UniProt O95429: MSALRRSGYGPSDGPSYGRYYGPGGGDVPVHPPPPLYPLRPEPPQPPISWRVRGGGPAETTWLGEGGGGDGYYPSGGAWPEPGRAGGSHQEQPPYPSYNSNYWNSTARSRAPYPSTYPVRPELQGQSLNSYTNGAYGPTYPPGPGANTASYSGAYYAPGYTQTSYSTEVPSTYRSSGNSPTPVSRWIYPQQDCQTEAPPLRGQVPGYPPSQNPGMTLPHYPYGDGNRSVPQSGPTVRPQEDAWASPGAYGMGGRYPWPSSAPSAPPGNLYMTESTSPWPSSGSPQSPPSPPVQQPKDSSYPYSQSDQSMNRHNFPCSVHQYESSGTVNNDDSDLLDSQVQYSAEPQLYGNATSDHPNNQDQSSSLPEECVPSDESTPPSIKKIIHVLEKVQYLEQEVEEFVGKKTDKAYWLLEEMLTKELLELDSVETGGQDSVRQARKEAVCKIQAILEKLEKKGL
UniProt Q13867: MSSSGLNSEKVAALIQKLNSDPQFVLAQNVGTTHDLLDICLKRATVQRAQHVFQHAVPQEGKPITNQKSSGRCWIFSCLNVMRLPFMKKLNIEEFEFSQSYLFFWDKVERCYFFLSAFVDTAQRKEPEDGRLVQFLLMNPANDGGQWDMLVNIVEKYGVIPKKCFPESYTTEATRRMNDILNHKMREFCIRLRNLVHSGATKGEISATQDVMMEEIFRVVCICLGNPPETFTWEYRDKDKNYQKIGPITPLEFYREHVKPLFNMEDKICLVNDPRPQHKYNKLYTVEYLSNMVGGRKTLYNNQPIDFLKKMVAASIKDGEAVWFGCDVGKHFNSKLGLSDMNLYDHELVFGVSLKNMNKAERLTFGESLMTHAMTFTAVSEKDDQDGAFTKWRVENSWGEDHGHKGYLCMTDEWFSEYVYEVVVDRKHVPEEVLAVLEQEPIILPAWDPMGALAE
UniProt Q9BQE9, whole entry, looked up: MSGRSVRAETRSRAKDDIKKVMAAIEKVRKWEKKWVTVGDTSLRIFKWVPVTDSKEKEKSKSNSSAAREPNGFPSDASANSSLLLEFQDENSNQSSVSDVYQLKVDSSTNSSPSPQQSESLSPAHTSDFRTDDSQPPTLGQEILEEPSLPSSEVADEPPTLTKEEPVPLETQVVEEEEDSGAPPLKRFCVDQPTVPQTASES
UniProt Q99728: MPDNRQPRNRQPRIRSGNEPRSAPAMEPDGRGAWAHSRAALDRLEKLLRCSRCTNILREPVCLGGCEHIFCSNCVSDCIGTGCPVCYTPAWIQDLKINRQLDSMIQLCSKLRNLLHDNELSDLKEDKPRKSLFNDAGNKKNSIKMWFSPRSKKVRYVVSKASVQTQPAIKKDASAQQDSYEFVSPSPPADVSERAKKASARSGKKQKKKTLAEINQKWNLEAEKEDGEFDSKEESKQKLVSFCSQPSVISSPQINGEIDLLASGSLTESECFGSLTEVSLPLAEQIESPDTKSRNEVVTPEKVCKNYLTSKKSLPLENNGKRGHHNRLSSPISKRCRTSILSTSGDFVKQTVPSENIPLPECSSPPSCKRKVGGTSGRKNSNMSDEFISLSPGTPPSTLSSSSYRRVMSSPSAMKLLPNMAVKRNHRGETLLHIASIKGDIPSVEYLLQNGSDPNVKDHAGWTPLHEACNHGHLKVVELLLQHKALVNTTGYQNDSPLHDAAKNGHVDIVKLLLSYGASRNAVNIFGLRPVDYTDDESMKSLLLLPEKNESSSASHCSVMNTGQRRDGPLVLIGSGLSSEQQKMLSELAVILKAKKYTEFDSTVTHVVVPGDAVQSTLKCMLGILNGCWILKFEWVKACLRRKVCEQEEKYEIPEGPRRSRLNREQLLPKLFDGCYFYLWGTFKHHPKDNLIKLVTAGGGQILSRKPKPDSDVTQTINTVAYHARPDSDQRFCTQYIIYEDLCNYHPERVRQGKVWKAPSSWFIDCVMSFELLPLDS
UniProt Q9NW68: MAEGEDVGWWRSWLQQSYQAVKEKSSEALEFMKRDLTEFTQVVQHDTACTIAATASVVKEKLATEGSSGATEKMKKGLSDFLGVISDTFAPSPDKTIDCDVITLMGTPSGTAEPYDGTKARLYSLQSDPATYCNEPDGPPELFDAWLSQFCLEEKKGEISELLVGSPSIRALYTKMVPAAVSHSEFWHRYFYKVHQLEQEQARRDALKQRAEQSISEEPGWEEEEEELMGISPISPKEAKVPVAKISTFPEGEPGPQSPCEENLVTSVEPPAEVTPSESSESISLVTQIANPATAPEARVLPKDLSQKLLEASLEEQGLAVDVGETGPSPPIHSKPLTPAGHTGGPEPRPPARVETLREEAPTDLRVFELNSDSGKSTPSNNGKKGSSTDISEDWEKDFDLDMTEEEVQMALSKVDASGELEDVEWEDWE
UniProt O95817, whole entry, looked up: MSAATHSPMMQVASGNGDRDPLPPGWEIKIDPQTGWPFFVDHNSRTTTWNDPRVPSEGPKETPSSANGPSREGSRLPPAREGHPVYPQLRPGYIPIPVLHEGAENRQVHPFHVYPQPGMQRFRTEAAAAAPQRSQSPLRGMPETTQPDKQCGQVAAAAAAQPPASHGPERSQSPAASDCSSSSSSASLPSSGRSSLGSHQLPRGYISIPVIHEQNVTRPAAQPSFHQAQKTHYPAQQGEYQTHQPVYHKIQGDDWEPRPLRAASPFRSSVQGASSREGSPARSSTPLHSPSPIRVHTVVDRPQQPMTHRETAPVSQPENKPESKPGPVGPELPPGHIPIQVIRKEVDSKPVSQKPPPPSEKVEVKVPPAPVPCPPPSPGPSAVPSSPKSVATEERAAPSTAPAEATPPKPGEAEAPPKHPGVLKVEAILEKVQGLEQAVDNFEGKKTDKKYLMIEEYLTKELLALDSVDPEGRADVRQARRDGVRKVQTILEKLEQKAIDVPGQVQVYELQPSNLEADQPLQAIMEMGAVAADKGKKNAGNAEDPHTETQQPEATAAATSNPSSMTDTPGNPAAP
UniProt Q8N9N5: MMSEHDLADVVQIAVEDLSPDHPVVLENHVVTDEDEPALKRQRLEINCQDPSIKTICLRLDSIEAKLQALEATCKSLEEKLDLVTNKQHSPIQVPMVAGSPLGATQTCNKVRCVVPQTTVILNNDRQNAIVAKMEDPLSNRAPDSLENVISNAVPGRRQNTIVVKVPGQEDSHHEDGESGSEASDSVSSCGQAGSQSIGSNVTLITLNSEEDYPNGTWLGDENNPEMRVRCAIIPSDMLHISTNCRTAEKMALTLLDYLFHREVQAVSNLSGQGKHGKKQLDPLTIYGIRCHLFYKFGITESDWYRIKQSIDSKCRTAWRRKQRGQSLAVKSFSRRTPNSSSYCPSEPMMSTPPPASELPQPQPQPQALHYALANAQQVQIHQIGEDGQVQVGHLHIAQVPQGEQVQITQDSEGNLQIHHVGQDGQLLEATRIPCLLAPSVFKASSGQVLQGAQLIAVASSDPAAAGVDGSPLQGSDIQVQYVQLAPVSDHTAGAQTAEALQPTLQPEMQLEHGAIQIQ
UniProt Q9NYF8, whole entry, looked up: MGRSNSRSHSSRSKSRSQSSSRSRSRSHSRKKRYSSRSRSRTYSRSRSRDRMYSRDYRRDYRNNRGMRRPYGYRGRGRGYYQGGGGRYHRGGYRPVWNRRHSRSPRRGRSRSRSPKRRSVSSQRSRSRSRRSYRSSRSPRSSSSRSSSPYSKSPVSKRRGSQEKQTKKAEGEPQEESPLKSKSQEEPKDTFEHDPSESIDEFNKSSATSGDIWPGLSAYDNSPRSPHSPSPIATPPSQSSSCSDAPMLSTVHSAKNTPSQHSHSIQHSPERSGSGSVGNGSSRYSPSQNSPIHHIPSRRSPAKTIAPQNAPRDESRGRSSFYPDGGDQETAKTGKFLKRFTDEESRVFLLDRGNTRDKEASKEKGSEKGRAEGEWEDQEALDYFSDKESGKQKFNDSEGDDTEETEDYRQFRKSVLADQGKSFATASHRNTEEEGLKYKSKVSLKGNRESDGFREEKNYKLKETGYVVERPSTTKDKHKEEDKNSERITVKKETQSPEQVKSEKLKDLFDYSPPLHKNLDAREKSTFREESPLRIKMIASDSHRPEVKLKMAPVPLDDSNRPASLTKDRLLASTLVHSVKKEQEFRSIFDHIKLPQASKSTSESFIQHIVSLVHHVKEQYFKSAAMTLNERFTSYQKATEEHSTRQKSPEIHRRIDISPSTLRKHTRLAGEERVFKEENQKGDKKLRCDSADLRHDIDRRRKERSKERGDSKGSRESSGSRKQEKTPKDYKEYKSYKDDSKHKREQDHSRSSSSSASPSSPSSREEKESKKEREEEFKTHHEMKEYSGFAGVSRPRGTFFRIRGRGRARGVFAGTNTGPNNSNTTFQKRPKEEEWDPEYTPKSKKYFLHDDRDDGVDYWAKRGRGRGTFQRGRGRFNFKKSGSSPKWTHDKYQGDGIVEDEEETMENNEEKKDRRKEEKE
UniProt Q07817, whole entry, looked up: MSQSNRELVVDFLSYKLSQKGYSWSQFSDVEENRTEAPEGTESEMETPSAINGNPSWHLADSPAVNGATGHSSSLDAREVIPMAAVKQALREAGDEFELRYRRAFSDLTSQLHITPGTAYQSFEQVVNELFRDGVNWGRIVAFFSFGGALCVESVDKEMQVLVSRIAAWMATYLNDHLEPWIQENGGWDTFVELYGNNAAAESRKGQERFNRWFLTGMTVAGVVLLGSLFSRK
UniProt Q53S33: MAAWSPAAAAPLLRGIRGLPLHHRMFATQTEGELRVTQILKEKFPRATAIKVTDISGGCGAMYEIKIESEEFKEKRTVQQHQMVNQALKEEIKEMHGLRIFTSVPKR
UniProt P53004: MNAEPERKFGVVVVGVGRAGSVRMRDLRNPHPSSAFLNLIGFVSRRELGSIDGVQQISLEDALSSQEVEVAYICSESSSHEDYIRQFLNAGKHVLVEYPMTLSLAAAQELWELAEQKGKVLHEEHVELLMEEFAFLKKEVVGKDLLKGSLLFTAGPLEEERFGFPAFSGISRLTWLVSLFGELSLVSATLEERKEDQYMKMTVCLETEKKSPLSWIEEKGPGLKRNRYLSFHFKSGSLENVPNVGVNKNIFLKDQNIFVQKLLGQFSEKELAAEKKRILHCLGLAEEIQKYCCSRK
UniProt Q6QNY0: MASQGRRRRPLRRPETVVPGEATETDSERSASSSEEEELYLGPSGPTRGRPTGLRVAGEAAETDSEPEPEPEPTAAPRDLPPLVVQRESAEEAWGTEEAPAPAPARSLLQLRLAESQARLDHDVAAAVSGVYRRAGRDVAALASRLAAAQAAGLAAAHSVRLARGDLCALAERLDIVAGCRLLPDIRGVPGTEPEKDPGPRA
UniProt Q5VW32: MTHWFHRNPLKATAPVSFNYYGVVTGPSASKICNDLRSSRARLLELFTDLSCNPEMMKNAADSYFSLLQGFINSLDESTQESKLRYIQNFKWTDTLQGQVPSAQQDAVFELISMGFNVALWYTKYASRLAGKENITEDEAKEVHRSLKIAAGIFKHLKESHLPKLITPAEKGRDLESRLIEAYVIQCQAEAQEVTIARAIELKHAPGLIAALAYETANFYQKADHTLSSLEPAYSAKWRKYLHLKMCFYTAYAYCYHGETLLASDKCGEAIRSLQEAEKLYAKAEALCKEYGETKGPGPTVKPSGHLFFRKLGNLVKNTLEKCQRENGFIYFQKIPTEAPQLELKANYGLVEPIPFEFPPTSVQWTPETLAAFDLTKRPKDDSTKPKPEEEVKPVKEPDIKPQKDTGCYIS
UniProt Q9NYM9: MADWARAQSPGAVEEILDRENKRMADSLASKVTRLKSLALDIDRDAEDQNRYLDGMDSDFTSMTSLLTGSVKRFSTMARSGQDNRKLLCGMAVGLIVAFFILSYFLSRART

[1] = compound: CCCS(=O)(=O)Nc1ccc(F)c(C(=O)c2c[nH]c3ncc(Cl)cc23)c1F
Summary of the method: as §1

barasertib = compound: CCN(CCCOc1ccc2c(Nc3cc(CC(=O)Nc4cccc(F)c4)[nH]n3)ncnc2c1)CCOP(=O)(O)O [barasertib]
Summary of the method: as §1

[2] = compound: CC[C@@H]1C(=O)N(C)c2cnc(Nc3ccc(C(=O)NC4CCN(C)CC4)cc3OC)nc2N1C1CCCC1
Summary of the method: as §1

volasertib = compound: CC[C@@H]1C(=O)N(C)c2cnc(Nc3ccc(C(=O)N[C@H]4CC[C@H](N5CCN(CC6CC6)CC5)CC4)cc3OC)nc2N1C(C)C [volasertib]
Summary of the method: as §1

[3] = compound: CCn1c(C(=O)N(C2CC2)C2CC2)cc2c3c(ncn3C)c(Nc3cc(C)n(C)n3)nc21
Summary of the method: as §1

[4] = compound: CCn1cc(-c2ccnc3[nH]c(-c4cccc(CN(C)C)c4)cc23)c(-c2ccc(NC(=O)N(C)C)cc2)n1
Summary of the method: as §1

[5] = compound: CN1CCC(CNc2ccc3ncc(-c4cccc(OC(F)(F)F)c4)n3n2)CC1
Summary of the method: as §1

saracatinib = compound: CN1CCN(CCOc2cc(OC3CCOCC3)c3c(Nc4c(Cl)ccc5c4OCO5)ncnc3c2)CC1 [saracatinib]
Summary of the method: as §1

sotrastaurin = compound: CN1CCN(c2nc(C3=C(c4c[nH]c5ccccc45)C(=O)NC3=O)c3ccccc3n2)CC1 [sotrastaurin]
Summary of the method: as §1

alvocidib = compound: CN1CC[C@H](c2c(O)cc(O)c3c(=O)cc(-c4ccccc4Cl)oc23)[C@H](O)C1 [alvocidib]
Summary of the method: as §1

Tubastatin A = compound: CN1CCc2c(c3ccccc3n2Cc2ccc(C(=O)NO)cc2)C1 [Tubastatin A]
Summary of the method: as §1

[6] = compound: CNC(=O)C1=CC=CC=C1NC2=NC(=NC=C2Cl)NC3=C(C=C(C=C3)N4CCOCC4)OC
Summary of the method: as §1

defactinib = compound: CNC(=O)c1ccc(Nc2ncc(C(F)(F)F)c(NCc3nccnc3N(C)S(C)(=O)=O)n2)cc1 [defactinib]
Summary of the method: as §1

[7] = compound: CNc1nc(-c2ccc3c(N)n[nH]c3c2)cc(N2C[C@@H](C(=O)NC3CCCCC3)CC[C@H]2C)n1
Summary of the method: as §1

encorafenib = compound: COC(=O)N[C@@H](C)CNc1nccc(-c2cn(C(C)C)nc2-c2cc(Cl)cc(NS(C)(=O)=O)c2F)n1 [encorafenib]
Summary of the method: as §1

[8] = compound: COC(=O)[C@H](CCSC)NC(=O)C1=C(C=C(C=C1)NC[C@H](CS)N)C2=CC=CC=C2
Summary of the method: as §1

alisertib = compound: COc1cc(Nc2ncc3c(n2)-c2ccc(Cl)cc2C(c2c(F)cccc2OC)=NC3)ccc1C(=O)O [alisertib]
Summary of the method: as §1

[9] = compound: COc1cc2nc(-c3cc(F)ccc3O)nc(N[C@@H]3CNC[C@H]3C(C)(C)O)c2cc1OC
Summary of the method: as §1

gefitinib = compound: COc1cc2ncnc(Nc3ccc(F)c(Cl)c3)c2cc1OCCCN1CCOCC1 [gefitinib]
Summary of the method: as §1

Measured: log2 fold change

BPHL (UniProt Q86WA6)
inactive: vemurafenib -0.13 | [1] 0.013 | barasertib 0.058 | [2] 0.015 | volasertib 0 | [3] 0.069 | [4] 0.063 | [5] 0 | saracatinib -0.058 | sotrastaurin 0.084 | alvocidib 0.004 | Tubastatin A -0.006 | [6] -0.048 | defactinib 0.036 | [7] -0.137 | encorafenib -0.002 | [8] 0.004 | alisertib 0.085 | [9] -0.028 | gefitinib 0.009

BCKDHB (UniProt P21953)
inactive: vemurafenib 0.068 | [1] 0.032 | barasertib 0.065 | [2] -0.102 | volasertib -0.079 | [3] -0.064 | [4] 0.022 | [5] -0.02 | saracatinib -0.012 | sotrastaurin 0.129 | alvocidib 0.062 | Tubastatin A 0.011 | [6] 0.008 | defactinib -0.008 | [7] -0.031 | encorafenib -0.074 | [8] 0.107 | alisertib -0.019 | [9] -0.015 | gefitinib -0.024

BAG4 (UniProt O95429)
inactive: vemurafenib -0.055 | [1] 0 | barasertib 0.048 | [2] 0.004 | volasertib -0.003 | [3] 0.036 | [4] -0.037 | [5] 0.102 | saracatinib 0.018 | sotrastaurin -0.043 | alvocidib 0.04 | Tubastatin A -0.096 | [6] -0.01 | defactinib -0.001 | [7] 0.023 | encorafenib -0.032 | [8] 0.005 | alisertib -0.023 | [9] 0.003 | gefitinib 0.039

BLMH (UniProt Q13867)
inactive: vemurafenib -0.011 | [1] -0.013 | barasertib -0.051 | [2] -0.018 | volasertib 0.007 | [3] 0.043 | [4] -0.067 | [5] 0.09 | saracatinib -0.011 | sotrastaurin 0.048 | alvocidib -0.031 | Tubastatin A 0.006 | [6] 0.005 | defactinib -0.015 | [7] -0.024 | encorafenib -0.029 | [8] 0.037 | alisertib 0.013 | [9] -0.039 | gefitinib 0.03

Reprinted from above (2 entries):
BAG4 (UniProt O95429)
inactive: vemurafenib -0.055 | [1] 0 | barasertib 0.048 | [2] 0.004 | volasertib -0.003 | [3] 0.036 | [4] -0.037 | [5] 0.102 | saracatinib 0.018 | sotrastaurin -0.043 | alvocidib 0.04 | Tubastatin A -0.096 | [6] -0.01 | defactinib -0.001 | [7] 0.023 | encorafenib -0.032 | [8] 0.005 | alisertib -0.023 | [9] 0.003 | gefitinib 0.039

BLMH (UniProt Q13867)
inactive: vemurafenib -0.011 | [1] -0.013 | barasertib -0.051 | [2] -0.018 | volasertib 0.007 | [3] 0.043 | [4] -0.067 | [5] 0.09 | saracatinib -0.011 | sotrastaurin 0.048 | alvocidib -0.031 | Tubastatin A 0.006 | [6] 0.005 | defactinib -0.015 | [7] -0.024 | encorafenib -0.029 | [8] 0.037 | alisertib 0.013 | [9] -0.039 | gefitinib 0.03

The list continues:

BCL7B (UniProt Q9BQE9)
inactive: vemurafenib 0.107 | [1] -0.001 | barasertib -0.347 | [2] -0.012 | volasertib 0.124 | [3] 0.066 | [4] 0.334 | [5] -0.271 | saracatinib 0.039 | sotrastaurin 0.058 | alvocidib 0.145 | Tubastatin A -0.034 | [6] -0.077 | defactinib 0 | [7] -0.013 | encorafenib 0.066 | [8] -0.038 | alisertib 0.006 | [9] -0.003 | gefitinib 0.049

BARD1 (UniProt Q99728)
inactive: vemurafenib 0.074 | [1] 0.221 | barasertib -0.056 | [2] 0.024 | volasertib 0 | [3] 0 | [4] -0.135 | [5] -0.005 | saracatinib -0.042 | sotrastaurin 0.073 | alvocidib 0.016 | Tubastatin A -0.05 | [6] 0.019 | defactinib 0.213 | [7] 0.03 | encorafenib -0.014 | [8] -0.029 | alisertib -0.027 | [9] -0.035 | gefitinib 0.005

BSDC1 (UniProt Q9NW68)
inactive: vemurafenib 0.027 | [1] 0.053 | barasertib 0.078 | [2] 0.099 | volasertib 0.018 | [3] -0.01 | [4] -0.027 | [5] 0.041 | saracatinib 0.03 | sotrastaurin -0.019 | alvocidib -0.033 | Tubastatin A 0.052 | [6] 0.018 | defactinib 0.031 | [7] -0.025 | encorafenib 0.112 | [8] -0.149 | alisertib 0.026 | [9] -0.031 | gefitinib -0.017

BAG3 (UniProt O95817)
inactive: vemurafenib 0.004 | [1] 0.012 | barasertib -0.049 | [2] 0.043 | volasertib 0.025 | [3] 0.018 | [4] 0.131 | [5] 0.002 | saracatinib 0.018 | sotrastaurin -0.022 | alvocidib 0.004 | Tubastatin A 0.024 | [6] 0.003 | defactinib -0.052 | [7] 0.031 | encorafenib 0.003 | [8] -0.018 | alisertib 0.016 | [9] 0.003 | gefitinib -0.022

BANP (UniProt Q8N9N5)
inactive: vemurafenib -0.076 | [1] 0.088 | barasertib -0.04 | [2] 0.03 | volasertib -0.05 | [3] -0.1 | [4] -0.001 | [5] -0.106 | saracatinib 0.039 | sotrastaurin 0.006 | alvocidib 0.001 | Tubastatin A -0.07 | [6] -0.002 | defactinib 0.087 | [7] 0.016 | encorafenib -0.028 | [8] 0.054 | alisertib 0.052 | [9] 0.009 | gefitinib -0.018

BCLAF1 (UniProt Q9NYF8)
inactive: vemurafenib -0.034 | [1] 0.03 | barasertib 0.027 | [2] -0.018 | volasertib 0.018 | [3] -0.032 | [4] 0.135 | [5] -0.083 | saracatinib 0.01 | sotrastaurin 0.039 | alvocidib -0.009 | Tubastatin A 0.055 | [6] -0.021 | defactinib -0.026 | [7] 0.043 | encorafenib 0.015 | [8] 0.025 | alisertib -0.048 | [9] -0.005 | gefitinib 0.058

BCL2L1 (UniProt Q07817)
inactive: vemurafenib -0.015 | [1] 0.001 | barasertib 0.11 | [2] 0.047 | volasertib 0.033 | [3] 0.029 | [4] -0.111 | [5] 0.099 | saracatinib -0.021 | sotrastaurin 0.004 | alvocidib -0.045 | Tubastatin A -0.004 | [6] -0.002 | defactinib -0.01 | [7] 0.03 | encorafenib 0.052 | [8] -0.059 | alisertib 0 | [9] 0.007 | gefitinib 0.013

BOLA3 (UniProt Q53S33)
inactive: vemurafenib -0.05 | [1] 0.019 | barasertib 0.023 | [2] 0.01 | volasertib 0.031 | [3] -0.025 | [4] -0.192 | [5] 0.044 | saracatinib -0.03 | sotrastaurin 0.038 | alvocidib -0.023 | Tubastatin A 0.069 | [6] -0.015 | defactinib -0.001 | [7] -0.027 | encorafenib -0.001 | [8] -0.026 | alisertib -0.03 | [9] 0.025 | gefitinib 0.009

BLVRA (UniProt P53004)
inactive: vemurafenib 0.007 | [1] 0.008 | barasertib -0.024 | [2] -0.041 | volasertib -0.014 | [3] -0.013 | [4] 0.045 | [5] -0.029 | saracatinib -0.019 | sotrastaurin 0.004 | alvocidib 0.004 | Tubastatin A 0.026 | [6] 0.011 | defactinib -0.032 | [7] -0.013 | encorafenib -0.034 | [8] -0.038 | alisertib 0.023 | [9] 0.005 | gefitinib -0.033

BLOC1S3 (UniProt Q6QNY0)
inactive: vemurafenib -0.006 | [1] 0.038 | barasertib 0.014 | [2] 0.014 | volasertib 0.053 | [3] 0.014 | [4] -0.052 | [5] 0.039 | saracatinib -0.085 | sotrastaurin -0.003 | alvocidib -0.013 | Tubastatin A -0.002 | [6] -0.008 | defactinib -0.019 | [7] 0.028 | encorafenib -0.011 | [8] 0.038 | alisertib -0.018 | [9] 0.039 | gefitinib -0.035

BROX (UniProt Q5VW32)
inactive: vemurafenib 0.009 | [1] 0.002 | barasertib 0.023 | [2] -0.121 | volasertib -0.004 | [3] 0.015 | [4] 0.035 | [5] -0.055 | saracatinib 0.01 | sotrastaurin -0.016 | alvocidib 0.018 | Tubastatin A 0.008 | [6] -0.019 | defactinib -0.011 | [7] -0.07 | encorafenib -0.061 | [8] -0.035 | alisertib 0.016 | [9] -0.005 | gefitinib -0.03

BET1L (UniProt Q9NYM9)
inactive: vemurafenib 0.054 | [1] 0.04 | barasertib -0.005 | [2] 0.027 | volasertib -0.111 | [3] 0.027 | [4] 0.098 | [5] -0.122 | saracatinib 0.056 | sotrastaurin -0.08 | alvocidib 0.033 | Tubastatin A 0.072 | [6] 0.171 | defactinib 0.163 | [7] -0.013 | encorafenib 0.079 | [8] -0.011 | alisertib -0.004 | [9] 0.012 | gefitinib -0.26
